Read-outs that look alike come from different tables or passages of the source.

The conditions of test [1]: 20 non-diabetic individuals, fasting, single oral dose glipizide 5 mg, baseline 95 mg/dL, p<0.0001 versus baseline. On the procedure: (§1) Pharmacologic studies were performed as follows. […] After a washout period of 6 days, subjects received metformin 500 mg twice daily for two days in order to reduce hepatic gluconeogenesis, and then underwent a 75 g OGTT in the presence of metformin. […] From the first 164 subjects completing the protocol, 20 participants were selected who represented both high and low ends of the HOMA-IR range.
(§2) OGTT causes an acute rise in plasma glucose, which then triggers a rise in insulin.
(§3) After a washout period of 6 days, these 20 individuals were then administered four doses of metformin (500 mg) over two days. Although chronic metformin use decreases insulin resistance, its acute effect is to decrease hepatic glucose output, and as a result, lower plasma insulin (10).

Another test concerns plasma TAGs. The note with it: 20 non-diabetic individuals, glipizide 5 mg, 60 and 120 minutes versus baseline (FIGS. 6A, 6B). On the procedure:
as §1, §2, §3

As for `Cc1cnc(C(=O)NCCc2ccc(S(=O)(=O)NC(=O)NC3CCCCC3)cc2)cn1` [glipizide], the mean plasma glucose in test [1] (60 minutes) came to 79 mg/dL; in test [1] (120 minutes), 65 mg/dL. For the same compound, the “TAG response (change of plasma TAGs by carbon number and double bond content)” value with plasma TAGs is reported as “recapitulated the TAG response to OGTT”.

(Values after patent publication US20120214821A1, “Lipidomic Biomarkers of Diabetes” (THE BROAD INSTITUTE, INC., priority 2011, published 2012).)
